Experimental data published in patent publication EP0444898A1 (MERCK & CO. INC., priority 1990, dated 1991).

Experiments:
[1] = general procedure: Boc solid-phase peptide synthesis; chloromethylated resin (Merrifield resin); Boc-L-Pro-O-(PAM)-resin; BOP reagent/DIEA for some couplings; acid chloride coupling; settings: whole synthesis, scale of the general procedure 1 mmole
[2] = general procedure: Boc solid-phase peptide synthesis; Boc-D-Trp-O-(Merrifield)-resin; BOP reagent/DIEA for some couplings; acid chloride coupling; settings: whole synthesis, scale 1 mmole, head-to-tail ring
[3] = general procedure: Boc solid-phase peptide synthesis; Boc-L-pro-(Merrifield)-resin; BOP reagent/DIEA for some couplings; acid chloride coupling; settings: whole synthesis, 210 nM, head-to-tail ring
peptide synthesis = settings: whole synthesis, HPLC (Method G), scale of the general procedure 1 mmole
[4] = general procedure: Boc solid-phase peptide synthesis; Boc-L-Pro-0-(PAM)-resin; BOP reagent/DIEA for some couplings; acid chloride coupling; settings: whole synthesis, scale 1 mmole, head-to-tail ring
[5] = general procedure: Boc solid-phase peptide synthesis; Merrifield resin; BOP reagent/DIEA for some couplings; acid chloride coupling; settings: whole synthesis, scale 2 mmole, head-to-tail ring
[6] = general procedure: Boc solid-phase peptide synthesis; Boc-L-Pro-PAM-resin; BOP reagent/DIEA for some couplings; acid chloride coupling; settings: whole synthesis, 214 nM, head-to-tail ring
[7] = general procedure: Boc solid-phase peptide synthesis; Boc-Pro-O-(PAM)-resin; BOP reagent/DIEA for some couplings; acid chloride coupling; settings: whole synthesis, scale 1 mmole
[8] = HPLC (Method G), head-to-tail ring

## c-[D-Trp-L-Ile-D-Pip-L-Pip-D-His-3,4-dehydro-Pro]
[1]; [8]
  final HPLC purity: 99%
[1]; head-to-tail ring
  isolated yield: 40%
[2]
  isolated mass: 301 mg

## c-[D-Tryptophanyl-L-isoleucinyl-D-pipecolyl-D-piperazin-2-yl(4-Cbz)-D-phenylalanyl-L-prolyl]
[3]
  final HPLC purity: >94.7%

## c-[D-Tryptophanyl-L-isoleucyl-D-Δ-piperazyl-(Nδ-Boc)-L-ornithyl-N-methyl-D-phenylalanyl-L-prolyl]
Peptide synthesis
  final HPLC purity: 95.6%

## c-[D-HomoPhe-L-Phe-D-Pip-L-Pip-D-(N-Me)Phe-L-Pro]
[1]; [8]
  final HPLC purity: 95%
[1]; head-to-tail ring
  isolated yield: 43%
[4]
  isolated mass: 340 mg

## c-[D-tryptophanyl-L-isoleucyl-D-piperazyl-(Nδ-Boc)-L-ornithyl-D-histidyl-L-prolyl]
Peptide synthesis
  final HPLC purity: 92.18%

## c-[D-phenylalanyl-L-isoleucyl-D-Δ-piperazyl-(Nδ-Boc)-L-ornithyl-N-methyl-D-phenylalanyl-L-prolyl]
Peptide synthesis
  final HPLC purity: 98.9%

## c-[D-Phenylalanyl-L-isoleucinyl-D-piperazin-2-yl (4-Cbz)-L-piperazin-2-yi (4-Cbz)-D-phenylaianyl-L-prolyl]
[1]; 214 nM, head-to-tail ring
  final HPLC purity: >96%
[1]; overall, head-to-tail ring
  isolated yield: 10%
[5]
  crude mass: 1.93 g

## c-[D-2-Trytophanyl-L-isoleucinyl-D-pipecolyl-L-piperazin-2-yl-(4-Cbz)-D-histidinyl(BOM)-L-prolyl]
[6]
  final HPLC purity: >96%

## C-[D-1-Nal-L-Ile-D-Pip-L-(Boc)Lys-D-(N-Me)-Phe-L-Pro]
[1]; HPLC (Method G)
  final HPLC purity: 99%
[1]
  isolated yield: 77%
[7]
  isolated mass: 350 mg

## c-[D-(O-Benzyl)-tyrosyl-L-isoleucyl-D-(Nδ-Cbz)-piperazyl-L-(Nδ-Cbz)-piperazyl-D-phenylalanyl-L-prolyl]
Peptide synthesis
  final HPLC purity: 96.3% pure
